According to publication PMC10518936:
Results are given in words; binding and its absence hold for the method and conditions named. In cells and extracts the contact can be indirect. Some binding calls cover weakened binding; strength is not graded here.

Sequences of proteins named here, by UniProt entry; tags and fusion partners are left off. A change or cut given only in a name is not applied to a line headed by its entry.
UniProt Q99MQ3: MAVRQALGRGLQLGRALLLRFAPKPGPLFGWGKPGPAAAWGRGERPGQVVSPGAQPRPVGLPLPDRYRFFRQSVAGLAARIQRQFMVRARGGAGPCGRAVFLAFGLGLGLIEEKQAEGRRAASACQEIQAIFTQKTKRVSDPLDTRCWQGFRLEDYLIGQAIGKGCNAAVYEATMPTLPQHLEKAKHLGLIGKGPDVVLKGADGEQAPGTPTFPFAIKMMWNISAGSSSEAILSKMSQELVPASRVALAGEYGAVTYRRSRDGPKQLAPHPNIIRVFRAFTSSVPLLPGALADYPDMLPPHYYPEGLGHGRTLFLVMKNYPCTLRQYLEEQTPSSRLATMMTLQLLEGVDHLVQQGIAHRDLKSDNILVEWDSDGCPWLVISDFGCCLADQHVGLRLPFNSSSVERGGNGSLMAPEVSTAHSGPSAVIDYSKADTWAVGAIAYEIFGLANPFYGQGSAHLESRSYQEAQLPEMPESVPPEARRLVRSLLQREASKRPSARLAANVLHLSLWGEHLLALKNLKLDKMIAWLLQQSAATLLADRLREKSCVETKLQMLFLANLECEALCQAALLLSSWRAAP

Columns and labels:
[1] = molecular target: PTEN mediated putative kinase protein 1 (PINK1) (UniProt Q99MQ3); test: co-IP; cells lysed in RIPA lysis buffer; supernatant incubated with the corresponding antibodies overnight at 4 °C; protein A agarose beads overnight at 4 °C; rinsed with PBS; detected by Western blotting; which antibody precipitated is not stated
[2] = molecular target: T1, SND1 (staphylococcal nuclease and Tudor domain containing 1) protein (UniProt Q78PY7); test: as above
T1 sequence: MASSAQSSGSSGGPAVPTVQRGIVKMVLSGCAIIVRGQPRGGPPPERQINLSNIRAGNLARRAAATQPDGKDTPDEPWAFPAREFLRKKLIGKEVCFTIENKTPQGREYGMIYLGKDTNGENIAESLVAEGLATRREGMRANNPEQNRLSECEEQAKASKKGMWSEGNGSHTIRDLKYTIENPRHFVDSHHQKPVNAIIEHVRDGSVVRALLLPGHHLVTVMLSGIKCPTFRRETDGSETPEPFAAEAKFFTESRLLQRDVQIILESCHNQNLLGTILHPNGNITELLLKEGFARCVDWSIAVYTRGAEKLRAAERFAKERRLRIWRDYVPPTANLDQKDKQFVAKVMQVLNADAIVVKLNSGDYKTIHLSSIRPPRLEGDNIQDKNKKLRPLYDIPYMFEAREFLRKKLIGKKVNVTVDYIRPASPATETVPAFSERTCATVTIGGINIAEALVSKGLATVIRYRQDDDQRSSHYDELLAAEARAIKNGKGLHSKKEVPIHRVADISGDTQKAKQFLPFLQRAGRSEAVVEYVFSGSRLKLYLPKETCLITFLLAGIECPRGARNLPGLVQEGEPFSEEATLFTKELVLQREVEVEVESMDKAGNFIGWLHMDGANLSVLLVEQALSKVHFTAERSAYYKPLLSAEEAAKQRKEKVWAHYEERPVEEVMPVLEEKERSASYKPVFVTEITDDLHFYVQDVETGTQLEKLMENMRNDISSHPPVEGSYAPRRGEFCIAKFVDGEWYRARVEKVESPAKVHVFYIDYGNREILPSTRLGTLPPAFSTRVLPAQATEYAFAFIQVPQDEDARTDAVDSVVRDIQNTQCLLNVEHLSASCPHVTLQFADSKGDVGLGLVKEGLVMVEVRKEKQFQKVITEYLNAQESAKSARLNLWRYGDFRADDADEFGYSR

| binding [1] | binding [2] | Substance |
| --- | --- | --- |
| binds |  | BECN1 (from UniProt O88597 1-448) |
|  | binds | PTEN mediated putative kinase protein 1 (PINK1) (from UniProt Q99MQ3 78-580) |
